Experimental findings from publication PMC12255304 are described below.

The target in this data set is FgRlm1-Strep (UniProt I1RY98). The data set is described as follows: EMSA. The conditions noted are these: recombinant protein; protein details: C-terminal Strep-tag (modified pET28b).

Construct, isoform or probe ends are uncertain for at least one entry.

For “TGCTATTTTTGGTGCTATTTTTGGTGCTATTTTTGG (double strand) [cis-element 2 WT probe (three repeats)]”, the binding result was “binds”. Regarding “TGATGCTGTTGATGTTGATGCTGTTGATGTTGATGCTGTTGATGT (double strand) [cis-element 1 WT probe (three repeats)]”, the binding result is “binds”.
